Results reported in article PMC9242541, “Importance of Rare DPYD Genetic Polymorphisms for 5-Fluorouracil Therapy in the Japanese Population” (Frontiers in Pharmacology, 2022).
These are yes or no findings as the source states them, for the method shown.

Target: DPD variant G926V (human) (UniProt Q12882)
Experiment: native gel or EMSA; blue native PAGE (Tris-glycine buffer, 5%-20% polyacrylamide gels), 9 μg of the soluble fraction of transfected 293FT cells per lane, immunoblot with polyclonal anti-human DPD antibody; monomer to dimer

B1: DPD variant G926V (enzyme, UniProt Q12882 4-1025)
chain: VLSKDSADIESILALNPRTQTHATLCSTSAKKLDKKHWKRNPDKNCFNCEKLENNFDDIKHTTLGERGALREAMRCLKCADAPCQKSCPTNLDIKSFITSIANKNYYGAAKMIFSDNPLGLTCGMVCPTSDLCVGGCNLYATEEGPINIGGLQQFATEVFKAMSIPQIRNPSLPPPEKMSEAYSAKIALFGAGPASISCASFLARLGYSDITIFEKQEYVGGLSTSEIPQFRLPYDVVNFEIELMKDLGVKIICGKSLSVNEMTLSTLKEKGYKAAFIGIGLPEPNKDAIFQGLTQDQGFYTSKDFLPLVAKGSKAGMCACHSPLPSIRGVVIVLGAGDTAFDCATSALRCGARRVFIVFRKGFVNIRAVPEEMELAKEEKCEFLPFLSPRKVIVKGGRIVAMQFVRTEQDETGKWNEDEDQMVHLKADVVISAFGSVLSDPKVKEALSPIKFNRWGLPEVDPETMQTSEAWVFAGGDVVGLANTTVESVNDGKQASWYIHKYVQSQYGASVSAKPELPLFYTPIDLVDISVEMAGLKFINPFGLASATPATSTSMIRRAFEAGWGFALTKTFSLDKDIVTNVSPRIIRGTTSGPMYGPGQSSFLNIELISEKTAAYWCQSVTELKADFPDNIVIASIMCSYNKNDWTELAKKSEDSGADALELNLSCPHGMGERGMGLACGQDPELVRNICRWVRQAVQIPFFAKLTPNVTDIVSIARAAKEGGANGVTATNTVSGLMGLKSDGTPWPAVGIAKRTTYGGVSGTAIRPIALRAVTSIARALPGFPILATGGIDSAESGLQFLHSGASVLQVCSAIQNQDFTVIEDYCTGLKALLYLKSIEELQDWDGQSPATVSHQKGKPVPRIAELMDKKLPSFGPYLEQRKKIIAENKIRLKEQNVAFSPLKRNCFIPKRPIPTIKDVIVKALQYLGTFGELSNVEQVVAMIDEEMCINCGKCYMTCNDSGYQAIQFDPETHLPTITDTCTGCTLCLSVCPIVDCIKMVSRTTPYEPKRGVPLSVNPVC
- binding: no binding
